In the supplement of paper PMC10849652:
This is one part of the list.

Sequences of proteins named here, by UniProt entry; tags and fusion partners are left off. A change or cut given only in a name is not applied to a line headed by its entry.
UniProt Q13033: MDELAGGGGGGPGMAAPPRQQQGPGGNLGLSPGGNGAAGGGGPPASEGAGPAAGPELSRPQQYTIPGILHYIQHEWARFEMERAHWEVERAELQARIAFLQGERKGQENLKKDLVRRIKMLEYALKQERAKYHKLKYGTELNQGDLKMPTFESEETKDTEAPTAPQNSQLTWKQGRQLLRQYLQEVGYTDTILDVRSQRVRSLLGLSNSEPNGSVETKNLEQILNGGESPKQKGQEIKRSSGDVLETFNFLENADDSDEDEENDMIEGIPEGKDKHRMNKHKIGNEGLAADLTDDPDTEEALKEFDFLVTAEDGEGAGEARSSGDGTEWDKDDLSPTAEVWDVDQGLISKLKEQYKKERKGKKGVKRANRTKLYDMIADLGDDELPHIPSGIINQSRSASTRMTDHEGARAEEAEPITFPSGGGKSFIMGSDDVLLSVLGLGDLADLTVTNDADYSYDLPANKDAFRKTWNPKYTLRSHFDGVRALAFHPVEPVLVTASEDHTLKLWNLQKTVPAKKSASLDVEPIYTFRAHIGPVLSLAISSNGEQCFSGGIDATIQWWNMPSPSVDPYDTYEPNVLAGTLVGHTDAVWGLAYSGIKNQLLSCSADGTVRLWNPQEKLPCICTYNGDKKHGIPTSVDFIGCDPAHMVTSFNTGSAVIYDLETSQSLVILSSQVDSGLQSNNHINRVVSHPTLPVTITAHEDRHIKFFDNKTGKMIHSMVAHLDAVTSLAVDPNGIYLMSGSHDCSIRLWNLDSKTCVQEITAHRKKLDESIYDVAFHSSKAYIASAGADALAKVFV
UniProt P27105: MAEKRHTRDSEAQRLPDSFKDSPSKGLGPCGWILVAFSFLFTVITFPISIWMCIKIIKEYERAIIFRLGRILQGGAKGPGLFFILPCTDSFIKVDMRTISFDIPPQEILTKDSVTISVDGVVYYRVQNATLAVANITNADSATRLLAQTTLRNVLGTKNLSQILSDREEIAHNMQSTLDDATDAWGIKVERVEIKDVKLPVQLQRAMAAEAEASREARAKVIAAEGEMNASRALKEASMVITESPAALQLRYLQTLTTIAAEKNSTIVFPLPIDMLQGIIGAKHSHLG
UniProt Q9Y2Z0: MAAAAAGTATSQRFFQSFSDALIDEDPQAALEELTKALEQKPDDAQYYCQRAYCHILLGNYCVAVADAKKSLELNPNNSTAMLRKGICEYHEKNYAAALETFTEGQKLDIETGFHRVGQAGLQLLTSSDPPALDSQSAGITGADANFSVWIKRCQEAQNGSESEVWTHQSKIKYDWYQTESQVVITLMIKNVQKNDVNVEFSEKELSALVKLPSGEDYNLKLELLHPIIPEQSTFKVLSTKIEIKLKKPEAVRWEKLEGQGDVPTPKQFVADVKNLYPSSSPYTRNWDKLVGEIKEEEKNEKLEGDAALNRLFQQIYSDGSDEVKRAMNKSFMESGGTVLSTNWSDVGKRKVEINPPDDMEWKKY
UniProt P61956, whole entry, looked up: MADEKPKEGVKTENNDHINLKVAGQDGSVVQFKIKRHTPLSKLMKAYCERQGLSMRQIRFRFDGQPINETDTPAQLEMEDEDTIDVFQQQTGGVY
UniProt P57105: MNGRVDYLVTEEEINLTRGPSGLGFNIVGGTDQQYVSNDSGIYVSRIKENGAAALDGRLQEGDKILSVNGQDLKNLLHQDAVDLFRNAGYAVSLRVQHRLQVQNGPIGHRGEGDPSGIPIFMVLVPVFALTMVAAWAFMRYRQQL
UniProt P21675, whole entry, looked up: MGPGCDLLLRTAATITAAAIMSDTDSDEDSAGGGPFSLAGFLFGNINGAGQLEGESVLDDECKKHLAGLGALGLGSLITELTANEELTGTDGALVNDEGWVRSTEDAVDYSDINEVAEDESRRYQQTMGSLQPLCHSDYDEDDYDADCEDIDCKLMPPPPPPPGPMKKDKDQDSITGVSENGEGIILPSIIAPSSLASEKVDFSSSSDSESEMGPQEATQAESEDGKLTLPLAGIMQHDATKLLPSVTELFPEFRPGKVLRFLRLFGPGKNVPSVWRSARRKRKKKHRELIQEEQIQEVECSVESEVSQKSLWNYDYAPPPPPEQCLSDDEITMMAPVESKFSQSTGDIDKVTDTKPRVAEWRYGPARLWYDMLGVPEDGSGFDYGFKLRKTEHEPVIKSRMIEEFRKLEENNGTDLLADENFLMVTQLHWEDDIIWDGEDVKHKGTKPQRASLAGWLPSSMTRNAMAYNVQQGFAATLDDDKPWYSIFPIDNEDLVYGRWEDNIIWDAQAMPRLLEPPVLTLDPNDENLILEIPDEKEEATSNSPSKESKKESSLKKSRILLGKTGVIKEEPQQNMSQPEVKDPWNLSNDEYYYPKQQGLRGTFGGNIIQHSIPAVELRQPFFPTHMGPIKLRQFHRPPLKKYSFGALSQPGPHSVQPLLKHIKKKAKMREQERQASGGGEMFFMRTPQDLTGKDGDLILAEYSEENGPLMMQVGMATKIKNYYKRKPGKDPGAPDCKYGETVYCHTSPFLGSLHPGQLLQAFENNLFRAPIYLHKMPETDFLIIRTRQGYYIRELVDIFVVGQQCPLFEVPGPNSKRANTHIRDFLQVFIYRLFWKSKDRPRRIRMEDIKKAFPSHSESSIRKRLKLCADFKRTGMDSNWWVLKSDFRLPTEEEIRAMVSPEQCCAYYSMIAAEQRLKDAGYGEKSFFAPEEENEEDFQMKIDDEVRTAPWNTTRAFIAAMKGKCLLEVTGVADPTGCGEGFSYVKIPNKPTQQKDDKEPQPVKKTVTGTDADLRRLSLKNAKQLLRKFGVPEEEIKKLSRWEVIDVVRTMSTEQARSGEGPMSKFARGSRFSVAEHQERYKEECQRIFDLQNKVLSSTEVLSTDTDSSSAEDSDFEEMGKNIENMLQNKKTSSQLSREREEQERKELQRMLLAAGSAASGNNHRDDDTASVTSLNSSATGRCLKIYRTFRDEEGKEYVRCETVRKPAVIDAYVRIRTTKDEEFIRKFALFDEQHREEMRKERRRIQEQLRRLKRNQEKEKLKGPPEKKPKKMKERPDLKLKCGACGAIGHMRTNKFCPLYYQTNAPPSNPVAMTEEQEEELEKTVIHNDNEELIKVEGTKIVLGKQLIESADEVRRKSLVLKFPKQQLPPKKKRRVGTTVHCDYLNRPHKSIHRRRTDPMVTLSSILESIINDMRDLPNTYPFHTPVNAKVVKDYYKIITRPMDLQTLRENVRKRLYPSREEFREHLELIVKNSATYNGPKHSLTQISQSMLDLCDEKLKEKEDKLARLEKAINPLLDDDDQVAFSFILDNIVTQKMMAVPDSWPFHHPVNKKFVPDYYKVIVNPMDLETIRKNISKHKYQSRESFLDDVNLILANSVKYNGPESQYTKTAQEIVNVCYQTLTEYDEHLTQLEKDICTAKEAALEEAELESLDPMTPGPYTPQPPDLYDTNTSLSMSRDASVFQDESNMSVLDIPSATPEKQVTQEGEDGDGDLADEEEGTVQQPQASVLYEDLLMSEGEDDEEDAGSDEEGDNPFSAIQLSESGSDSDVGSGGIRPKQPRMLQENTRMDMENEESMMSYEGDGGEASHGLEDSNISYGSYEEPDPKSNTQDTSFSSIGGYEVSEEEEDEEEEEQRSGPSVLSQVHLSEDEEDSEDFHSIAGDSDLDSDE
UniProt Q92750: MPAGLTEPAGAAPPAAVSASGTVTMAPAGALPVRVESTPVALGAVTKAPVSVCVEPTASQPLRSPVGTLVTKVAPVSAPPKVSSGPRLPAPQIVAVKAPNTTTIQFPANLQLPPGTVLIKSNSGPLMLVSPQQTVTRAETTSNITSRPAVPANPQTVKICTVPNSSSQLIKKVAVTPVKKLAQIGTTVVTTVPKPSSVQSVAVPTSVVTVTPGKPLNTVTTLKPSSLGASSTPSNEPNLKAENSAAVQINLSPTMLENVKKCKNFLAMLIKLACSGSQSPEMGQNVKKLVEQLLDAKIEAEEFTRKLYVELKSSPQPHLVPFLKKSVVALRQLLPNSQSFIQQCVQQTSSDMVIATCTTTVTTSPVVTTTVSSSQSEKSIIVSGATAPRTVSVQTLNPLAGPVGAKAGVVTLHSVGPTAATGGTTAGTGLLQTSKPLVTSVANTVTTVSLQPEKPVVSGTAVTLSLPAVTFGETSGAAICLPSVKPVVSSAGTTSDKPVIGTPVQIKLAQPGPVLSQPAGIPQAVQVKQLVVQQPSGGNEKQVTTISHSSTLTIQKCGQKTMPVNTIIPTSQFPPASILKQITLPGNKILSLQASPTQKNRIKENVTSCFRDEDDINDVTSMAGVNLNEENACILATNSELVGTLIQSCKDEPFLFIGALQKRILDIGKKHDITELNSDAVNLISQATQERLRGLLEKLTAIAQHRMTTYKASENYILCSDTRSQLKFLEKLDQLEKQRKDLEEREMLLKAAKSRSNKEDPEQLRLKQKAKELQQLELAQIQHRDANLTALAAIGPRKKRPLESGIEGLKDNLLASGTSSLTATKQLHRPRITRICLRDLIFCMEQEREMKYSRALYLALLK
UniProt Q15833: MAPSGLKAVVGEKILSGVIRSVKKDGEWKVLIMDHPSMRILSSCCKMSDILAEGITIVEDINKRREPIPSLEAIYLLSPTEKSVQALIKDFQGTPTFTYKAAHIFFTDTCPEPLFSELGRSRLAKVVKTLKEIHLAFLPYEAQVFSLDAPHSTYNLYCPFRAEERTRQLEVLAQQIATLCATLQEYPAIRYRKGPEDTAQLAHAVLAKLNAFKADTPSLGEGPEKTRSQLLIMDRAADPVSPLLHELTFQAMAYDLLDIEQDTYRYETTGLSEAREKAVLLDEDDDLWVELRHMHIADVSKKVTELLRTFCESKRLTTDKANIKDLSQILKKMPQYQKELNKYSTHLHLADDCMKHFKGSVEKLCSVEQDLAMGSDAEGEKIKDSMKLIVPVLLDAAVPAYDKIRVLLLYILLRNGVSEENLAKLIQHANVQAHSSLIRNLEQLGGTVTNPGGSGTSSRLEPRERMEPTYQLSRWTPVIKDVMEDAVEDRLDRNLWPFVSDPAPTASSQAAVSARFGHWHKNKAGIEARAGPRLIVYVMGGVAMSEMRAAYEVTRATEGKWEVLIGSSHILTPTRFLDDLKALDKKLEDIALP
UniProt Q9P2W9: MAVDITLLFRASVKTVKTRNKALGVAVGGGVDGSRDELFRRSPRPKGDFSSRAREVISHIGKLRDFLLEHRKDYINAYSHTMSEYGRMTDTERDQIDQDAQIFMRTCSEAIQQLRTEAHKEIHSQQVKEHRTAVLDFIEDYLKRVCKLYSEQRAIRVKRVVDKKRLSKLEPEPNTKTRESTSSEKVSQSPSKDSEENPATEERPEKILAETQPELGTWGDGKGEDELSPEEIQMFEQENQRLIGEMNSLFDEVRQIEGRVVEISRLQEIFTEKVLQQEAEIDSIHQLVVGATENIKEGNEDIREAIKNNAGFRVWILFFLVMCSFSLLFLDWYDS
UniProt Q6P1X5, whole entry, looked up: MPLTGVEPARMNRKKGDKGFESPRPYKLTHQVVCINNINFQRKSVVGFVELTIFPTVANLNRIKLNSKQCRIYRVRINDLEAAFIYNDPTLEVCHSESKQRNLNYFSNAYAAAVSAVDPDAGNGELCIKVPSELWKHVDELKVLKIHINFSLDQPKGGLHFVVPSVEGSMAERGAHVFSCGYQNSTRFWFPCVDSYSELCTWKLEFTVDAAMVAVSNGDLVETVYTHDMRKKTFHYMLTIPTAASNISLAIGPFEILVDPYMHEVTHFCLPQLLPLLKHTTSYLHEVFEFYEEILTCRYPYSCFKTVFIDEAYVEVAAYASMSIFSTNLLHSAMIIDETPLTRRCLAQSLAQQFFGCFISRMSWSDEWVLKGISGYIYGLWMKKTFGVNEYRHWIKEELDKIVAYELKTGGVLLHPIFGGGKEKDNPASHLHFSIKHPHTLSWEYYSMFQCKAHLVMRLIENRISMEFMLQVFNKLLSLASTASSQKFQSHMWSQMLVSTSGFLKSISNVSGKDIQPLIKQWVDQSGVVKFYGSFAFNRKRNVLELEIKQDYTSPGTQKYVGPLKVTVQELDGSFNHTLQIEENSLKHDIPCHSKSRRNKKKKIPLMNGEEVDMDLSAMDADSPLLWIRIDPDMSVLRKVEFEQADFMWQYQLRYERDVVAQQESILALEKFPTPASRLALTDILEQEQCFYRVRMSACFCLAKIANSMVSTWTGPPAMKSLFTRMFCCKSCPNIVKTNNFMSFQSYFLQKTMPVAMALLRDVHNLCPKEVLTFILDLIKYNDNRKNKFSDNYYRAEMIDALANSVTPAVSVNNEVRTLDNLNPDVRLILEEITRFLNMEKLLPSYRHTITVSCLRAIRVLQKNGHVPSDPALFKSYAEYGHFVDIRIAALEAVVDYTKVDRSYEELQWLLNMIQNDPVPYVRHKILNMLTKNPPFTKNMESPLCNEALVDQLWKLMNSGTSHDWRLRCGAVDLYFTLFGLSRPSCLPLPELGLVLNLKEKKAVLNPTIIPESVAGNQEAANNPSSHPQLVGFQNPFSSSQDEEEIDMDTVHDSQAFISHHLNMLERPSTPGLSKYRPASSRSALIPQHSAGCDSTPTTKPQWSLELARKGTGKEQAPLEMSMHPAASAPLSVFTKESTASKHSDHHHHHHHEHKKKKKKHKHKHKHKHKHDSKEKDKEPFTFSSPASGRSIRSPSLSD

Tests used:
Test in all cases: log2 fold change, soluble protein after heating vs DMSO (PISA); higher = thermal stabilisation; K562 lysate, 10 uM; active = over 0.2 and 3.5 SD of the protein, either way, in both replicates (recomputed)
vemurafenib = compound: CCCS(=O)(=O)Nc1ccc(F)c(C(=O)c2c[nH]c3ncc(-c4ccc(Cl)cc4)cc23)c1F [vemurafenib]
Summary of the method: (§1)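 The values are log-two fold changes in thermal stability compared with solvent controls and come from duplicates. They were obtained by TMTpro 16plex LC-MS/MS, with channel sums equalised, on the supernatant after 21,000xg for 90 min. That supernatant came from crude K562 extract at 1 mg/mL protein treated with 10 μM compound for 30 min, heated for 3 min across 48°C-58°C, pooled and brought to 0.5% NP-40 at 4°C.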

[1] = compound: CCCS(=O)(=O)Nc1ccc(F)c(C(=O)c2c[nH]c3ncc(Cl)cc23)c1F
Summary of the method: as §1

barasertib = compound: CCN(CCCOc1ccc2c(Nc3cc(CC(=O)Nc4cccc(F)c4)[nH]n3)ncnc2c1)CCOP(=O)(O)O [barasertib]
Summary of the method: as §1

[2] = compound: CC[C@@H]1C(=O)N(C)c2cnc(Nc3ccc(C(=O)NC4CCN(C)CC4)cc3OC)nc2N1C1CCCC1
Summary of the method: as §1

volasertib = compound: CC[C@@H]1C(=O)N(C)c2cnc(Nc3ccc(C(=O)N[C@H]4CC[C@H](N5CCN(CC6CC6)CC5)CC4)cc3OC)nc2N1C(C)C [volasertib]
Summary of the method: as §1

[3] = compound: CCn1c(C(=O)N(C2CC2)C2CC2)cc2c3c(ncn3C)c(Nc3cc(C)n(C)n3)nc21
Summary of the method: as §1

[4] = compound: CCn1cc(-c2ccnc3[nH]c(-c4cccc(CN(C)C)c4)cc23)c(-c2ccc(NC(=O)N(C)C)cc2)n1
Summary of the method: as §1

[5] = compound: CN1CCC(CNc2ccc3ncc(-c4cccc(OC(F)(F)F)c4)n3n2)CC1
Summary of the method: as §1

saracatinib = compound: CN1CCN(CCOc2cc(OC3CCOCC3)c3c(Nc4c(Cl)ccc5c4OCO5)ncnc3c2)CC1 [saracatinib]
Summary of the method: as §1

sotrastaurin = compound: CN1CCN(c2nc(C3=C(c4c[nH]c5ccccc45)C(=O)NC3=O)c3ccccc3n2)CC1 [sotrastaurin]
Summary of the method: as §1

Row | Target | log2 fold change (vemurafenib) | log2 fold change [1] | log2 fold change (barasertib) | log2 fold change [2] | log2 fold change (volasertib) | log2 fold change [3] | log2 fold change [4] | log2 fold change [5] | log2 fold change (saracatinib) | log2 fold change (sotrastaurin)
1 | STRN3 (UniProt Q13033) | inactive: -0.056 | inactive: 0.04 | inactive: 0.006 | inactive: -0.081 | inactive: -0.019 | inactive: -0.025 | inactive: 0.154 | inactive: -0.112 | inactive: -0.024 | inactive: 0
2 | STOM (UniProt P27105) | inactive: 0.019 | inactive: 0.001 | inactive: 0.021 | inactive: -0.122 | inactive: 0.021 | inactive: -0.038 | inactive: -0.065 | inactive: 0.013 | inactive: -0.01 | inactive: 0.004
3 | STN1 (UniProt Q9H668) | inactive: 0.047 | inactive: -0.389 | inactive: 0.114 | inactive: -0.071 | inactive: -0.068 | inactive: -0.016 | inactive: -0.179 | inactive: 0.31 | – | inactive: -0.025
4 | SYP (UniProt P08247) | inactive: -0.026 | inactive: -0.021 | inactive: 0.057 | inactive: -0.012 | inactive: 0.069 | inactive: 0.045 | inactive: 0.076 | inactive: -0.003 | inactive: 0.047 | inactive: 0.026
5 | SUGT1 isoform 2 (UniProt Q9Y2Z0) | inactive: -0.026 | inactive: -0.026 | inactive: -0.246 | inactive: 0.079 | inactive: -0.04 | inactive: 0.08 | – | – | inactive: 0.072 | inactive: -0.104
6 | SVIP (UniProt Q8NHG7) | inactive: -0.014 | inactive: 0.014 | inactive: 0.051 | inactive: 0.079 | inactive: 0.095 | inactive: -0.11 | inactive: 0.033 | inactive: 0.005 | inactive: 0 | inactive: -0.086
7 | TAF11 (UniProt Q15544) | inactive: -0.055 | inactive: 0.166 | – | inactive: 0.14 | inactive: 0.037 | inactive: 0.086 | inactive: -0.028 | inactive: 0.086 | inactive: -0.021 | inactive: 0.026
8 | STX5 (UniProt Q13190) | inactive: 0.097 | inactive: -0.015 | inactive: 0.064 | inactive: 0.03 | inactive: -0.077 | inactive: 0.034 | inactive: -0.049 | inactive: -0.124 | inactive: 0.081 | inactive: 0.017
9 | STMN3 (UniProt Q9NZ72) | inactive: -0.123 | inactive: -0.006 | inactive: 0.098 | inactive: 0.096 | inactive: 0.002 | inactive: -0.066 | – | – | inactive: 0.053 | inactive: 0.009
10 | SUB1 (UniProt P53999) | inactive: 0.007 | inactive: 0.001 | inactive: -0.044 | inactive: 0.027 | inactive: 0.025 | inactive: 0.002 | inactive: 0.075 | inactive: 0.075 | inactive: -0.014 | inactive: -0.038
11 | SYPL1 (UniProt Q16563) | inactive: -0.006 | inactive: -0.019 | inactive: 0.076 | inactive: 0.004 | inactive: 0.032 | inactive: -0.011 | active: -0.418 | inactive: 0.194 | inactive: 0.01 | inactive: 0.023
12 | TAF5 (UniProt Q15542) | inactive: -0.043 | inactive: 0.053 | inactive: -0.098 | – | inactive: -0.07 | inactive: -0.092 | inactive: 0.256 | inactive: 0.044 | inactive: -0.079 | –
13 | TAF4 (UniProt O00268) | inactive: -0.139 | inactive: 0.044 | inactive: 0.159 | inactive: 0.061 | inactive: 0.015 | inactive: -0.033 | – | – | inactive: -0.005 | inactive: 0.007
14 | SUPT5H isoform 2 (UniProt O00267) | inactive: 0.211 | inactive: 0.107 | inactive: 0.024 | – | inactive: 0.07 | – | – | – | inactive: 0.004 | inactive: 0.08
15 | STK3 isoform 2 (UniProt Q13188) | inactive: 0.046 | inactive: 0.04 | inactive: 0.032 | – | inactive: -0.047 | inactive: -0.012 | inactive: -0.017 | inactive: 0.216 | inactive: -0.01 | inactive: 0.142
16 | SUMO2 (UniProt P61956) | inactive: -0.004 | inactive: -0.104 | inactive: 0.161 | inactive: 0.136 | inactive: 0.039 | inactive: -0.064 | inactive: 0.042 | inactive: 0.012 | inactive: 0.035 | inactive: 0.037

Reformatted comma-delimited: entries from further up
Row,Target,log2 fold change (vemurafenib),log2 fold change [1],log2 fold change (barasertib),log2 fold change [2],log2 fold change (volasertib),log2 fold change [3],log2 fold change [4],log2 fold change [5],log2 fold change (saracatinib),log2 fold change (sotrastaurin)
1,STRN3 (UniProt Q13033),inactive: -0.056,inactive: 0.04,inactive: 0.006,inactive: -0.081,inactive: -0.019,inactive: -0.025,inactive: 0.154,inactive: -0.112,inactive: -0.024,inactive: 0
11,SYPL1 (UniProt Q16563),inactive: -0.006,inactive: -0.019,inactive: 0.076,inactive: 0.004,inactive: 0.032,inactive: -0.011,active: -0.418,inactive: 0.194,inactive: 0.01,inactive: 0.023

The list goes on.

Row | Target | log2 fold change (vemurafenib) | log2 fold change [1] | log2 fold change (barasertib) | log2 fold change [2] | log2 fold change (volasertib) | log2 fold change [3] | log2 fold change [4] | log2 fold change [5] | log2 fold change (saracatinib) | log2 fold change (sotrastaurin)
17 | TACC3 (UniProt Q9Y6A5) | inactive: -0.036 | inactive: -0.006 | inactive: -0.039 | inactive: 0.047 | inactive: 0.033 | inactive: -0.016 | inactive: -0.031 | inactive: 0.038 | inactive: 0.019 | inactive: -0.01
18 | SURF6 (UniProt O75683) | inactive: 0.003 | inactive: 0.015 | inactive: 0.029 | inactive: 0.048 | inactive: -0.005 | inactive: 0.039 | inactive: -0.005 | inactive: 0.027 | inactive: 0.023 | inactive: 0.005
19 | SYNJ2BP (UniProt P57105) | inactive: 0.081 | inactive: 0.063 | inactive: 0.072 | inactive: 0.094 | inactive: -0.022 | inactive: 0.05 | – | – | inactive: 0.074 | inactive: 0.035
20 | TAF1 isoform 4 (UniProt P21675) | inactive: 0.07 | inactive: -0.047 | – | inactive: -0.139 | inactive: -0.13 | inactive: 0.033 | inactive: 0.138 | inactive: 0.247 | inactive: -0.017 | inactive: 0.01
21 | STX12 (UniProt Q86Y82) | inactive: 0.046 | inactive: -0.02 | inactive: -0.004 | inactive: 0.078 | inactive: 0.031 | inactive: -0.044 | inactive: -0.033 | inactive: 0.021 | inactive: -0.017 | inactive: 0.01
22 | SYTL4 (UniProt Q96C24) | inactive: -0.015 | inactive: -0.007 | inactive: -0.032 | inactive: 0.083 | inactive: 0.01 | inactive: 0.066 | inactive: -0.074 | inactive: -0.07 | inactive: -0.002 | inactive: -0.009
23 | SUPT4H1 (UniProt P63272) | inactive: 0.085 | inactive: -0.029 | inactive: -0.007 | inactive: 0.036 | inactive: 0.022 | inactive: -0.05 | inactive: 0.031 | inactive: -0.009 | inactive: 0.024 | inactive: -0.09
24 | SYK (UniProt P43405) | inactive: 0.184 | inactive: 0.065 | inactive: 0.092 | – | inactive: 0.027 | inactive: -0.123 | active: -0.644 | inactive: -0.001 | inactive: -0.041 | inactive: 0.068
25 | STRBP (UniProt Q96SI9) | inactive: -0.001 | inactive: 0.019 | inactive: 0.032 | inactive: 0.034 | inactive: -0.002 | inactive: 0.073 | inactive: -0.056 | inactive: 0.065 | inactive: -0.042 | inactive: 0.024
26 | TAF4B (UniProt Q92750) | inactive: 0.142 | inactive: -0.129 | inactive: 0.049 | inactive: 0.01 | inactive: -0.487 | inactive: -0.015 | inactive: -0.038 | inactive: 0.046 | inactive: 0.067 | inactive: 0.003
27 | STXBP2 (UniProt Q15833) | inactive: 0.006 | inactive: 0.008 | inactive: 0.007 | inactive: -0.052 | inactive: -0.054 | inactive: 0.06 | inactive: 0.002 | inactive: -0.046 | inactive: 0.007 | inactive: 0.008
28 | STX18 (UniProt Q9P2W9) | inactive: -0.008 | inactive: 0.03 | inactive: 0.093 | inactive: 0.018 | inactive: -0.051 | inactive: 0.169 | inactive: -0.028 | inactive: -0.061 | inactive: 0.019 | inactive: -0.017
29 | TAF2 (UniProt Q6P1X5) | inactive: 0.092 | inactive: 0.015 | inactive: 0.057 | inactive: 0.04 | inactive: -0.031 | inactive: 0.021 | inactive: 0.053 | inactive: -0.053 | inactive: 0.054 | inactive: -0.001
30 | STS (UniProt P08842) | inactive: -0.127 | – | inactive: -0.442 | – | – | inactive: 0.095 | inactive: -0.055 | inactive: 0.049 | – | inactive: -0.028
31 | STK38L (UniProt Q9Y2H1) | – | – | – | inactive: -0.105 | – | inactive: -0.047 | – | – | inactive: -0.058 | inactive: -0.01
